In PMC7618119:
No constants are given. Whether binding was seen depends on the method and setting. Binding seen in cells or lysates may run through a third protein. Some binding calls cover weakened binding; strength is not graded here.

Amino acid sequences for entries named in this document (tags omitted).
UniProt P35372, whole entry: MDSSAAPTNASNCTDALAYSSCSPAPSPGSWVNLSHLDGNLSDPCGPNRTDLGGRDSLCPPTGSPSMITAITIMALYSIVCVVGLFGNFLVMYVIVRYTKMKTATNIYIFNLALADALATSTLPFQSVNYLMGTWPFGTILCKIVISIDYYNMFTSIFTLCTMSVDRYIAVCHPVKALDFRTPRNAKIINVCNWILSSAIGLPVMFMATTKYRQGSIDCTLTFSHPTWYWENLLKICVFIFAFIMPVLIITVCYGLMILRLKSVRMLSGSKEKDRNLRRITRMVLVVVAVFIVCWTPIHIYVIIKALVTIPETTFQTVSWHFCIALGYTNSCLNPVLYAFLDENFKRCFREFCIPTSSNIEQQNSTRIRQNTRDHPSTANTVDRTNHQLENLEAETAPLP
UniProt P32121, whole entry: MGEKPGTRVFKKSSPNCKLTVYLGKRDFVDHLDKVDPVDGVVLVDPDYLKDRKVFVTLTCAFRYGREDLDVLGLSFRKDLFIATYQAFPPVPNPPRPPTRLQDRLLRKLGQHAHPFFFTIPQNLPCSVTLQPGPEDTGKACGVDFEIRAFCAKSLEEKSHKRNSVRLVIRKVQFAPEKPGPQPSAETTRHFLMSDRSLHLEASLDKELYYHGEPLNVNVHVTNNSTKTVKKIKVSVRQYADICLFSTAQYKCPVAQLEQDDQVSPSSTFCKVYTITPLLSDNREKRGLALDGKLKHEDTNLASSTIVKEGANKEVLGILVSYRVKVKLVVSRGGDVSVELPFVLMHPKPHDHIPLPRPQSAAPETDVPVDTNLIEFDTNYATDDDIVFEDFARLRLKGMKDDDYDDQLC

Target: human μ-opioid receptor-RlucII (human) (UniProt P35372)
Test: FRET or BRET; BRET2 in intact HEK293T cells transiently transfected with human μ-opioid receptor-RlucII and β-arrestin-2-GFP; 37°C; coelenterazine 400a 5 μM; read 10 min after opioid agonist application

binding: binds
Substance: β-arrestin-2-GFP (from UniProt P32121 1-409)
